In the supplement of paper PMC10849652:
This is one part of the list. Residues, ends and D or L forms follow the SMILES beside them. *: point of attachment. Cbz = O=C(OCc1ccccc1)*

By UniProt entry, the sequences of proteins in these tests, tags left out. Where a name states a change or a piece, a line headed by the entry shows the natural chain unless it says otherwise.
UniProt P0C7P0: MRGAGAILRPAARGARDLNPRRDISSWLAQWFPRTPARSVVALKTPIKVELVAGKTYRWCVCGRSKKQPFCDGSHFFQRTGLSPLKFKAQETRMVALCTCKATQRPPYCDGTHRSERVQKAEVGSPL
UniProt Q92600, whole entry, looked up: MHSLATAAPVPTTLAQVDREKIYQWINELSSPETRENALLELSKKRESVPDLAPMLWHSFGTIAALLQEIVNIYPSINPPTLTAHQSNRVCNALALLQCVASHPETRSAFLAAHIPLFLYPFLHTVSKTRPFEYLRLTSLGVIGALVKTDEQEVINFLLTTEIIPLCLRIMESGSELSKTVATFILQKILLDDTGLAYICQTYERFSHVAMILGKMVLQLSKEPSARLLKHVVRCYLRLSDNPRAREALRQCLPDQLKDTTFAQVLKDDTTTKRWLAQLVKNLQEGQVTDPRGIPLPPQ
UniProt Q8NE01: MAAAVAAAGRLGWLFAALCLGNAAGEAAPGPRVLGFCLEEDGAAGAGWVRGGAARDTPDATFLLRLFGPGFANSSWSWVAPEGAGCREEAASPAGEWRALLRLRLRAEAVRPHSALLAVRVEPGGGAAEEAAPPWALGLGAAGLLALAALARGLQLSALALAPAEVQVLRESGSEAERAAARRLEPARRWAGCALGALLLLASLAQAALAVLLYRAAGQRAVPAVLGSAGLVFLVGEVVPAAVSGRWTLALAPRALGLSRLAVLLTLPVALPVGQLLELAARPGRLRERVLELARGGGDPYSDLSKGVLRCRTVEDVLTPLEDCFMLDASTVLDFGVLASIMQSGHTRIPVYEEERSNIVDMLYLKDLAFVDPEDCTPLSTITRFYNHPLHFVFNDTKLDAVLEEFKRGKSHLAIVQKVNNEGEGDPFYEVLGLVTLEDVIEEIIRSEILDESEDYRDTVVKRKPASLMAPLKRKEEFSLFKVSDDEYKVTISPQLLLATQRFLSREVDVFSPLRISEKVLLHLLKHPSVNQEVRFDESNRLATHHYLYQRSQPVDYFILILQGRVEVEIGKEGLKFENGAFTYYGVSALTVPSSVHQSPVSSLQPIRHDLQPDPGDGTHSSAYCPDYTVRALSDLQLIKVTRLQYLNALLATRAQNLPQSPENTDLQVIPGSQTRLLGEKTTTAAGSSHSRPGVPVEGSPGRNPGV
UniProt Q5JTJ3: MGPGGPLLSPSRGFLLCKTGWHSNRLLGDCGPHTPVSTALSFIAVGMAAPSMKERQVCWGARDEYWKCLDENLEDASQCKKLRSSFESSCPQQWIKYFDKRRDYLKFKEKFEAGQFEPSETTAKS
UniProt Q9H5X1: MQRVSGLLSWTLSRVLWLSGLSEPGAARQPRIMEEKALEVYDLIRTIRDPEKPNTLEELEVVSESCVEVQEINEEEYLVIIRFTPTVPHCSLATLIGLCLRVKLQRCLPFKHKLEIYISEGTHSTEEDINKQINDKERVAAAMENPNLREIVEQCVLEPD
UniProt O14578, whole entry, looked up: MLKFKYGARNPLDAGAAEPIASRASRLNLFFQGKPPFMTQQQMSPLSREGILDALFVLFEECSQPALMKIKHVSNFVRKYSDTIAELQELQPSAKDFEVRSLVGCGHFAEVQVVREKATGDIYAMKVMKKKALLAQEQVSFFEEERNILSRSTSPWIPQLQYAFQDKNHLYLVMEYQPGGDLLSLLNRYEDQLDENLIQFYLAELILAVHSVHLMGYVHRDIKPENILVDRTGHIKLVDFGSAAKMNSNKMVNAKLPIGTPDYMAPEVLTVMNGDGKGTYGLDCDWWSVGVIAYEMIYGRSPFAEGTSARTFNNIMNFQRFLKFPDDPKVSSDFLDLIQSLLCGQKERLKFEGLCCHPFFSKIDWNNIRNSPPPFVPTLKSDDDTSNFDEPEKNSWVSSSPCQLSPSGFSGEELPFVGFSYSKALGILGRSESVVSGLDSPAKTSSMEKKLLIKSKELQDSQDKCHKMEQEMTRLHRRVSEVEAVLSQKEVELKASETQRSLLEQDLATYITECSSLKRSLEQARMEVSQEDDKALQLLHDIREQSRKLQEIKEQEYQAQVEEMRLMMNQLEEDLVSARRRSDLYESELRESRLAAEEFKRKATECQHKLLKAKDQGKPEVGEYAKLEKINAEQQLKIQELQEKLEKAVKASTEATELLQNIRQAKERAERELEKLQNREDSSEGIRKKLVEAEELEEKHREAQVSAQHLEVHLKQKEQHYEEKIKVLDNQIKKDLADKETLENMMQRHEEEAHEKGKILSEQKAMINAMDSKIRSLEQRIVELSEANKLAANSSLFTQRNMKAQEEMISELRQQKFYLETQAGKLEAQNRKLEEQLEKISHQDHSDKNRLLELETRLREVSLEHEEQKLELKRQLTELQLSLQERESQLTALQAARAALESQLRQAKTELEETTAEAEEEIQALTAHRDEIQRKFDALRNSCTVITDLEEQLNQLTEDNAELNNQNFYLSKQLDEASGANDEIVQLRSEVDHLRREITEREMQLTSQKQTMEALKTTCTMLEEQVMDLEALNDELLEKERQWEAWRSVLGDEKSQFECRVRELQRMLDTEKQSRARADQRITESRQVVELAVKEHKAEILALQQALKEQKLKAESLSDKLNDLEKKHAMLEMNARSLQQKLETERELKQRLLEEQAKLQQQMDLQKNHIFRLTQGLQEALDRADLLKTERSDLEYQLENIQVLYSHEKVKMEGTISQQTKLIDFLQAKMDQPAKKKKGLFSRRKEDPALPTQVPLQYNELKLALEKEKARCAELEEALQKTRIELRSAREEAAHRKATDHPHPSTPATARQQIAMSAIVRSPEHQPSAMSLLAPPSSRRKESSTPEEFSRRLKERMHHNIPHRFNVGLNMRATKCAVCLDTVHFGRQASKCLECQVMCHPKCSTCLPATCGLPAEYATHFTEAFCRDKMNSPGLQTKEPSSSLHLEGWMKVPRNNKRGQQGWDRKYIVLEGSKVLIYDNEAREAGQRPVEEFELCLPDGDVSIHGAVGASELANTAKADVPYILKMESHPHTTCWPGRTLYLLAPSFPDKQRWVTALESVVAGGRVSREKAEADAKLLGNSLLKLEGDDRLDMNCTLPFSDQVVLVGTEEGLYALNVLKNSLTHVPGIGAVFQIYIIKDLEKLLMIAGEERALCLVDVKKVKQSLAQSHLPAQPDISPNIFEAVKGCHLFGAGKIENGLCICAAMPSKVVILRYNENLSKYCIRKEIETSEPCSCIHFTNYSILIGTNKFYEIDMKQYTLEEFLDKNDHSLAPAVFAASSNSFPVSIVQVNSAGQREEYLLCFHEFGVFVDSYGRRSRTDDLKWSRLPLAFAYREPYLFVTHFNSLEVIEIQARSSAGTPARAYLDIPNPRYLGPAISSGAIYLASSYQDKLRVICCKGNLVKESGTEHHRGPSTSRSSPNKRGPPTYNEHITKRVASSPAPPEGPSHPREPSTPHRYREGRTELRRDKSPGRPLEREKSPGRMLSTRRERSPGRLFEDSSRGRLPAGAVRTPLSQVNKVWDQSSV
UniProt P06732: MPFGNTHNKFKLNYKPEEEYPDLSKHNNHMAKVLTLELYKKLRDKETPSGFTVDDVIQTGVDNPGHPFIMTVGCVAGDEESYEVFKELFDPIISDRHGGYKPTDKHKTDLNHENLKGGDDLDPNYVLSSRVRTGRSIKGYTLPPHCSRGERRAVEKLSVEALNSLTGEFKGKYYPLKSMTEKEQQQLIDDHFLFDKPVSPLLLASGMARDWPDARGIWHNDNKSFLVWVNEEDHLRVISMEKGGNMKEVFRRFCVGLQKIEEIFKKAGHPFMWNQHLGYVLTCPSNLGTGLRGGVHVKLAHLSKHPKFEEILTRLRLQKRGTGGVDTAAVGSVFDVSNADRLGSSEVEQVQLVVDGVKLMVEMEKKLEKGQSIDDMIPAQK
UniProt Q86X95: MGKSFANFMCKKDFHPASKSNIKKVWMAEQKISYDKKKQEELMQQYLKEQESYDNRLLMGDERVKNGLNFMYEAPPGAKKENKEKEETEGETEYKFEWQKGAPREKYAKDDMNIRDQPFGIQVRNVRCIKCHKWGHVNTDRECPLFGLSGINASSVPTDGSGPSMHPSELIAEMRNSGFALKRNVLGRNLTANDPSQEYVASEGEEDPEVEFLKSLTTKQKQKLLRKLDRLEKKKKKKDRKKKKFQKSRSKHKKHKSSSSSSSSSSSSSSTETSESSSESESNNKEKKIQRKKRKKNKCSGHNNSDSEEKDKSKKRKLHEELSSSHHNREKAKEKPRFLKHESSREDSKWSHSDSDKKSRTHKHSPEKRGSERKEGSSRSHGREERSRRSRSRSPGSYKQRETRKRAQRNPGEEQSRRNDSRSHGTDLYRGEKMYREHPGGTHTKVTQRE
UniProt Q9BQ75: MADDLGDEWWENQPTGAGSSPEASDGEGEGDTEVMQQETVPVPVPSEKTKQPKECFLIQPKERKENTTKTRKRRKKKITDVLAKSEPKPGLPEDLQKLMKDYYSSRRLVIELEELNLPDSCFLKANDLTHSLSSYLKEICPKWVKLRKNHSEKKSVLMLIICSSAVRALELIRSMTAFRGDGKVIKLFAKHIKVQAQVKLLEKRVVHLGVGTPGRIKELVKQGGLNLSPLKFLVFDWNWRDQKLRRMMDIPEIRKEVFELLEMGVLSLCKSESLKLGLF
UniProt Q9Y2R0: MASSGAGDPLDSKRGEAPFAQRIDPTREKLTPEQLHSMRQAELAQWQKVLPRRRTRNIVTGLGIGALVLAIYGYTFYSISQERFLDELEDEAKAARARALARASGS
UniProt Q99653: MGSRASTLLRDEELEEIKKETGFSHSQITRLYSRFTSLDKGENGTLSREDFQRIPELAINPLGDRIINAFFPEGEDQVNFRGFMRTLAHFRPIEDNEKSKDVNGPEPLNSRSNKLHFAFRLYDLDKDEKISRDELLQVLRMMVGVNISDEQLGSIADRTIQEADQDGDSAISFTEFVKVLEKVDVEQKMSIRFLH
UniProt Q9NPF2: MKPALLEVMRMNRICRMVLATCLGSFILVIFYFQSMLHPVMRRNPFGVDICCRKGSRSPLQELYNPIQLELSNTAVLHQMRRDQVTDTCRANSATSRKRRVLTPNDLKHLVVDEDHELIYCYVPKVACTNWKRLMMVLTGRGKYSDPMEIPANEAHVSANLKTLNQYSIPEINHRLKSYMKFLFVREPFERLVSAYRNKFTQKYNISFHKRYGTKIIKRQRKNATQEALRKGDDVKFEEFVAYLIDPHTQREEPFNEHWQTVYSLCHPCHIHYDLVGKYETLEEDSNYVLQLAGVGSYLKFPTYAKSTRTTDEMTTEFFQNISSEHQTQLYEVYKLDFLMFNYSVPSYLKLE
UniProt O75122: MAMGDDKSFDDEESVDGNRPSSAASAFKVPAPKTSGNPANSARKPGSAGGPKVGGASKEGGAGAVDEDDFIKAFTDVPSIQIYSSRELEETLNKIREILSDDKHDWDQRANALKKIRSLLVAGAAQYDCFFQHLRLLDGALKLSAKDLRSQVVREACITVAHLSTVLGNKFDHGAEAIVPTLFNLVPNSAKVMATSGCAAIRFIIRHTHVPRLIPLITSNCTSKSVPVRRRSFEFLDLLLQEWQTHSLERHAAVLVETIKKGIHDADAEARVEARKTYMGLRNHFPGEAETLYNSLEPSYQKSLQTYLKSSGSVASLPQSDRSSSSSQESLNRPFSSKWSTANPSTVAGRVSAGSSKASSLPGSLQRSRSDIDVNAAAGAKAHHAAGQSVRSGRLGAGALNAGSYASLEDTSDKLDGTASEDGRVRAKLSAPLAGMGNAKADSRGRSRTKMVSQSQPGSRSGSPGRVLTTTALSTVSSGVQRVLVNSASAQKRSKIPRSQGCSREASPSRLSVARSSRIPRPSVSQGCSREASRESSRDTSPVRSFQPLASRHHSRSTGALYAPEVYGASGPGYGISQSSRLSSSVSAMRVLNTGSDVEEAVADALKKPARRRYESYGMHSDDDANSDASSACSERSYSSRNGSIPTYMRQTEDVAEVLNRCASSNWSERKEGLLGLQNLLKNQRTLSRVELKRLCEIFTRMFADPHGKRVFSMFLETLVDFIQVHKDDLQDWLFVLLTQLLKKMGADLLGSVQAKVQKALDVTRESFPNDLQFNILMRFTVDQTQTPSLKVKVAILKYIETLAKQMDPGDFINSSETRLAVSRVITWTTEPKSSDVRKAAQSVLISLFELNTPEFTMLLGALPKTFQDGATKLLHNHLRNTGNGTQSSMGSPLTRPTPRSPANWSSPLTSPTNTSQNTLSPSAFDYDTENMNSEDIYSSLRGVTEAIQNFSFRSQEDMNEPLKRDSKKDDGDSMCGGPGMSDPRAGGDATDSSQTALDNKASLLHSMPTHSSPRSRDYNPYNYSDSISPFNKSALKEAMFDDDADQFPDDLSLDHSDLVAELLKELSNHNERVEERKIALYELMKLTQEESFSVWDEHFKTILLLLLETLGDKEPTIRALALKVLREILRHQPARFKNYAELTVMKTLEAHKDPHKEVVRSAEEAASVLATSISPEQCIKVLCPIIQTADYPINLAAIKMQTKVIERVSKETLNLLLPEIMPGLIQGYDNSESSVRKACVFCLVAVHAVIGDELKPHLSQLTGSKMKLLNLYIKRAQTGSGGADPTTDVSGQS

Experiments:
Assay in all cases: log2 fold change, soluble protein after heating vs DMSO (PISA); higher = thermal stabilisation; K562 cells, 10 uM, 30 min; active = over 0.2 and 3.5 SD of the protein, either way, in both replicates (recomputed)
erlotinib = compound: C#Cc1cccc(Nc2ncnc3cc(OCCOC)c(OCCOC)cc23)c1 [erlotinib]
How it was run: (§1)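 K562 cells (2×10^6 cells/mL) were treated with 10 μM compound for 30 min, and aliquots were heated for 3 min over 48°C-58°C. Pooled aliquots were extracted in PBS with 0.5% NP-40 at 4°C, and the supernatant after 21,000xg for 90 min was measured by TMTpro 16plex LC-MS/MS with channel sums equalised. Reported thermal stability, relative to control samples and from duplicates, is a log2 fold change.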

[1] = compound: C/C(=N\NC(=O)C1=CC(=CC=C1)S(=O)(=O)N2CCOCC2)/C3=C(C=CC(=C3)Cl)O
How it was run: as §1

[2] = compound: C1=CC(=C(C=C1Cl)C2=NC3=NC=CN=C3C(=N2)NC4=CC=NC=C4)F
How it was run: as §1

[3] = compound: C1=CC(=CC=C1C2=NC3=C(N2)C=C(C=C3)C(=O)N)OC4=CC=C(C=C4)Cl
How it was run: as §1

[4] = compound: C1=CC2=C(C=CC(=C2)/C=C\3/C(=O)NC(=NCC4=CC=CS4)S3)N=C1
How it was run: as §1

[5] = compound: C1=CC2=NC=CN=C2C=C1/C=C/3\C(=O)NC(=O)S3
How it was run: as §1

[6] = compound: C1=CC=C(C=C1)C2=NC(=C(N2)C3=CC=NC=C3)C4=CC(=C(C=C4)Cl)O
How it was run: as §1

[7] = compound: C1=CC=C2C(=C1)C3=NNC4=CC=CC(=C43)C2=O
How it was run: as §1

[8] = compound: C1CCN(C1)C(=O)NC2=CC=CC(=C2)NC3=NC=C(C(=N3)NCCC4=CN=CN4)Br
How it was run: as §1

[9] = compound: C1CN(CCC1(CC2=CC=C(C=C2)Cl)N)C3=NC=NC4=C3C=CN4
How it was run: as §1

IRAK-1-4 Inhibitor I = compound: C1COCCN1CCN2C3=CC=CC=C3N=C2NC(=O)C4=CC(=CC=C4)[N+](=O)[O-] [IRAK-1-4 Inhibitor I]
How it was run: as §1

ibrutinib = compound: C=CC(=O)N1CCC[C@@H](n2nc(-c3ccc(Oc4ccccc4)cc3)c3c(N)ncnc32)C1 [ibrutinib]
How it was run: as §1

[10] = compound: CC(=O)c1cnc2ccc(-c3cc(Cl)c(O)c(Cl)c3)nc2c1N[C@H]1CC[C@H](CN(C)C)CC1
How it was run: as §1

ralimetinib = compound: CC(C)(C)Cn1c(N)nc2ccc(-c3[nH]c(C(C)(C)C)nc3-c3ccc(F)cc3)nc21 [ralimetinib]
How it was run: as §1

[11] = compound: CC(C)(O)CC(=O)NCCn1ccc2ncnc(Nc3ccc(Oc4cccc(C(F)(F)F)c4)c(Cl)c3)c21
How it was run: as §1

[12] = compound: CC(C)C1=C2N=C(C=C(N2N=C1)NCC3=CC=CC=C3)NCCCCCCN
How it was run: as §1

[13] = compound: CC(C)C[C@@H](C=O)NC(=O)[C@H](CC(C)C)NC(=O)[C@H](CC(C)C)NC(=O)OCc1ccccc1
How it was run: as §1

pinometostat = compound: CC(C)N(C[C@H]1O[C@@H](n2cnc3c(N)ncnc32)[C@H](O)[C@@H]1O)[C@H]1C[C@@H](CCc2nc3cc(C(C)(C)C)ccc3[nH]2)C1 [pinometostat]
How it was run: as §1

[14] = compound: CC1=C(C(CC(=O)N1)C2=CC=C(C=C2)C(F)(F)F)C(=O)NC3=C(C=C4C(=C3)C=NN4)F
How it was run: as §1

[15] = compound: CC1=C(C2=C(C=C1)C(=O)C3=CC=CC=C3N2CCCN)C
How it was run: as §1

| Target | log2 fold change (erlotinib) | log2 fold change [1] | log2 fold change [2] | log2 fold change [3] | log2 fold change [4] | log2 fold change [5] | log2 fold change [6] | log2 fold change [7] | log2 fold change [8] | log2 fold change [9] | log2 fold change (IRAK-1-4 Inhibitor I) | log2 fold change (ibrutinib) | log2 fold change [10] | log2 fold change (ralimetinib) | log2 fold change [11] | log2 fold change [12] | log2 fold change [13] | log2 fold change (pinometostat) | log2 fold change [14] | log2 fold change [15] |
| --- | --- | --- | --- | --- | --- | --- | --- | --- | --- | --- | --- | --- | --- | --- | --- | --- | --- | --- | --- | --- |
| CISD3 (UniProt P0C7P0) | inactive: 0.014 | inactive: 0.038 | inactive: 0.044 | inactive: 0.119 | inactive: -0.074 | inactive: -0.064 | inactive: 0.107 | inactive: -0.008 | inactive: -0.102 | inactive: 0.049 | inactive: -0.018 | inactive: 0.015 | inactive: 0.16 | inactive: -0.002 | inactive: -0.048 | inactive: -0.066 | inactive: -0.003 | inactive: 0.009 | inactive: 0.048 | inactive: 0.145 |
| CNOT9 isoform 2 (UniProt Q92600) | inactive: -0.008 | inactive: 0.011 | inactive: -0.03 | inactive: -0.01 | inactive: 0.004 | inactive: 0.033 | inactive: 0.032 | inactive: -0.024 | inactive: -0.028 | inactive: 0.023 | inactive: -0.035 | inactive: -0.051 | inactive: -0.027 | inactive: 0.025 | inactive: -0.091 | inactive: -0.006 | inactive: 0.006 | inactive: 0.014 | inactive: -0.041 | inactive: 0.046 |
| CNNM3 (UniProt Q8NE01) | inactive: 0.047 | inactive: -0.002 | inactive: -0.012 | inactive: 0.008 | inactive: 0.05 | inactive: 0.003 | inactive: -0.027 | inactive: -0.067 | inactive: -0.017 | inactive: 0.03 | inactive: 0.008 | inactive: 0.007 | inactive: -0.065 | inactive: -0.05 | inactive: 0.022 | inactive: 0.019 | inactive: 0.05 | inactive: -0.026 | inactive: 0.007 | inactive: 0.051 |
| COA6 isoform 2 (UniProt Q5JTJ3) | inactive: 0.012 | inactive: 0.022 | inactive: 0.045 | inactive: 0.007 | inactive: 0.023 | inactive: 0.062 | inactive: -0.053 | inactive: -0.108 | inactive: 0.047 | inactive: 0.02 | inactive: 0.043 | inactive: 0.036 | inactive: 0.019 | inactive: -0.071 | inactive: 0.045 | inactive: 0.059 | inactive: -0.026 | inactive: -0.04 |  | inactive: -0.004 |
| CIAO2A (UniProt Q9H5X1) | inactive: 0.007 | inactive: 0.038 | inactive: 0.038 | inactive: 0.033 | inactive: 0.026 | inactive: 0.041 | inactive: -0.022 | inactive: -0.057 | inactive: 0.007 | inactive: -0.001 | inactive: 0.05 | inactive: -0.035 | inactive: -0.083 | inactive: -0.013 | inactive: 0.028 | inactive: -0.175 | inactive: 0.017 | inactive: -0.053 | inactive: 0.037 | inactive: 0.061 |
| CMTR1 (UniProt Q8N1G2) | inactive: -0.005 | inactive: 0.105 | inactive: 0.031 | inactive: 0.013 | inactive: 0.048 | inactive: 0.012 | inactive: 0.012 | inactive: 0.036 | inactive: 0.01 | inactive: 0.018 | inactive: -0.007 | inactive: -0.011 | inactive: -0.014 | inactive: -0.026 | inactive: -0.024 | inactive: -0.011 | inactive: -0.002 | inactive: -0.029 |  | inactive: 0.169 |
| CIT isoform 4 (UniProt O14578) | inactive: -0.015 | inactive: 0.045 | inactive: -0.044 | inactive: 0 | inactive: -0.176 | inactive: 0.13 | inactive: -0.027 | inactive: -0.002 | inactive: -0.037 | inactive: 0.021 | inactive: -0.013 | inactive: -0.057 | active: -0.462 | inactive: -0.008 | inactive: -0.077 | inactive: -0.021 | inactive: 0.045 | inactive: -0.005 |  | inactive: 0.118 |
| CIAPIN1 (UniProt Q6FI81) | inactive: -0.027 | inactive: 0.041 | inactive: 0.089 | inactive: -0.02 | inactive: 0.006 | inactive: 0.044 | inactive: 0.032 | inactive: 0.023 | inactive: -0.017 | inactive: 0.007 | inactive: 0.015 | inactive: -0.02 | inactive: -0.019 | inactive: 0.029 | inactive: -0.035 | inactive: -0.009 | inactive: -0.013 | inactive: -0.052 | inactive: -0.001 | inactive: 0.02 |
| CNOT1 (UniProt A5YKK6) | inactive: 0.013 | inactive: 0.102 | inactive: -0.003 | inactive: -0.007 | inactive: 0.035 | inactive: 0.001 | inactive: 0.014 | inactive: -0.004 | inactive: -0.009 | inactive: -0.008 | inactive: -0.07 | inactive: -0.024 | inactive: -0.029 | inactive: 0.028 | inactive: -0.063 | inactive: -0.101 | inactive: 0.039 | inactive: 0.027 |  | inactive: 0.063 |
| CKM (UniProt P06732) | inactive: -0.024 | inactive: 0.034 | inactive: 0.073 | inactive: 0.023 | inactive: 0.066 | inactive: -0.016 | inactive: 0.072 | inactive: 0.041 | inactive: -0.004 | inactive: -0.003 | inactive: -0.024 | inactive: 0.034 | inactive: -0.021 | inactive: -0.002 | inactive: -0.133 | inactive: -0.028 | inactive: 0 | inactive: 0.022 | inactive: -0.038 | inactive: 0.072 |
| CIR1 (UniProt Q86X95) | inactive: -0.008 | inactive: -0.035 | inactive: -0.254 | inactive: 0.055 | inactive: -0.054 | inactive: -0.029 | inactive: -0.144 | inactive: -0.016 | inactive: -0.008 | inactive: 0.002 | inactive: -0.023 | inactive: 0.121 | inactive: -0.05 | inactive: 0.083 | inactive: 0.128 | inactive: 0.198 | inactive: 0.175 | inactive: 0.169 |  | inactive: 0.022 |
| CMSS1 (UniProt Q9BQ75) | inactive: -0.051 | inactive: 0.114 | inactive: -0.121 | inactive: -0.045 | inactive: 0.044 | inactive: -0.011 | inactive: -0.003 | inactive: -0.127 | inactive: -0.026 | inactive: -0.014 | inactive: -0.065 | inactive: -0.014 | inactive: -0.081 | inactive: 0.171 | inactive: -0.006 | inactive: 0.219 | inactive: 0.069 | inactive: -0.028 | inactive: 0.058 | inactive: -0.248 |
| COA3 (UniProt Q9Y2R0) | inactive: -0.002 | inactive: -0.001 | inactive: 0.073 | inactive: -0.043 | inactive: -0.046 | inactive: 0.069 | inactive: -0.052 | inactive: 0.029 | inactive: -0.035 | inactive: 0.006 | inactive: 0.008 | inactive: -0.004 | inactive: 0.011 | inactive: -0.08 | inactive: 0.057 | inactive: 0.039 | inactive: 0.009 | inactive: -0.087 | inactive: 0.016 | inactive: -0.014 |
| CHP1 (UniProt Q99653) | inactive: -0.022 | inactive: 0.024 | inactive: 0.097 | inactive: 0.012 | inactive: -0.056 | inactive: 0.008 | active: 0.287 | inactive: 0.006 | inactive: -0.07 | inactive: 0.091 | inactive: 0.091 | inactive: -0.024 | inactive: 0.001 | inactive: 0.145 | inactive: -0.017 | inactive: 0.017 | inactive: -0.061 | inactive: -0.02 |  | inactive: -0.047 |
| CHST11 (UniProt Q9NPF2) | inactive: -0.061 | inactive: 0.082 | inactive: 0.046 | inactive: -0.054 | inactive: -0.118 | inactive: 0.007 | inactive: 0.161 | inactive: 0.057 | inactive: 0.002 | inactive: -0.067 | inactive: -0.002 | inactive: -0.032 | inactive: 0.063 | inactive: -0.406 | inactive: 0.057 | inactive: -0.257 | inactive: -0.17 | inactive: 0.084 |  | inactive: -0.058 |
| CLASP2 isoform 3 (UniProt O75122) | inactive: 0.014 | inactive: 0.136 | inactive: 0.066 | inactive: 0.032 | inactive: 0.081 | inactive: -0.013 | inactive: -0.01 | inactive: 0.006 | inactive: -0.063 | inactive: 0.041 | inactive: -0.047 |  | active: -0.297 | inactive: 0.009 | inactive: -0.056 | inactive: -0.036 | inactive: 0.046 | inactive: 0.018 |  | inactive: 0.046 |

Given bar-delimited: entries from further up.
Target | log2 fold change (erlotinib) | log2 fold change [1] | log2 fold change [2] | log2 fold change [3] | log2 fold change [4] | log2 fold change [5] | log2 fold change [6] | log2 fold change [7] | log2 fold change [8] | log2 fold change [9] | log2 fold change (IRAK-1-4 Inhibitor I) | log2 fold change (ibrutinib) | log2 fold change [10] | log2 fold change (ralimetinib) | log2 fold change [11] | log2 fold change [12] | log2 fold change [13] | log2 fold change (pinometostat) | log2 fold change [14] | log2 fold change [15]
CHST11 (UniProt Q9NPF2) | inactive: -0.061 | inactive: 0.082 | inactive: 0.046 | inactive: -0.054 | inactive: -0.118 | inactive: 0.007 | inactive: 0.161 | inactive: 0.057 | inactive: 0.002 | inactive: -0.067 | inactive: -0.002 | inactive: -0.032 | inactive: 0.063 | inactive: -0.406 | inactive: 0.057 | inactive: -0.257 | inactive: -0.17 | inactive: 0.084 |  | inactive: -0.058
CLASP2 isoform 3 (UniProt O75122) | inactive: 0.014 | inactive: 0.136 | inactive: 0.066 | inactive: 0.032 | inactive: 0.081 | inactive: -0.013 | inactive: -0.01 | inactive: 0.006 | inactive: -0.063 | inactive: 0.041 | inactive: -0.047 |  | active: -0.297 | inactive: 0.009 | inactive: -0.056 | inactive: -0.036 | inactive: 0.046 | inactive: 0.018 |  | inactive: 0.046
